Experimental data as given in US20050112168A1.
No constants are given. Whether binding was seen depends on the method and setting. Some results given as binding are weak or reduced against the parent protein; the word gives no strength. Tags and fused reporters may be left off the sequences shown.

Experiments:
[1] = target: GAL-4-BD-TRAP fusion protein (human); assay: mammalian two-hybrid luciferase assay (FIG. 12)
[2] = target: GAL-4-BD-TRAP fusion protein (human); assay: mammalian two-hybrid luciferase assay

B1: VP-16-AD-GPC4 fusion protein (full length glypican 4) (protein)
chain: ALLAAELKSKSCSEVRRLYVSKGFNKNDAPLHEINGDHLKICPQGSTCCSQEMEEKYSLQSKDDFKSVVSEQCNHLQAVFASRYKKFDEFFKELLENAEKSLNDMFVKTYGHLYMQNSELFKDLFVELKRYYVVGNVNLEEMLNDFWARLLERMFRLVNSQYHFTDEYLECVSKYTEQLKPFGDVPRKLKLQVTRAFVAARTFAQGLAVAGDVVSKVSVVNPTAQCTHALLKMIYCSHCRGLVTVKPCYNYCSNIMRGCLANQGDLDFEWNNFIDAMLMVAERLEGPFNIESVMDPIDVKISDAIMNMQDNSVQVSQKVFQGCGPPKPLPAGRISRSISESAFSARFRPHHPEERPTTAAGTSLDRLVTDVKEKLKQAKKFWSSLPSNVCNDERMAAGNGNEDDCWNGKGKSRYLFAVTGNGLANQGNNPEVQVDTSKPDILILRQIMALRVMTSKMKNAYNGNDVDFFDISDESSGEGSGSGCEYQQCPSEFDYNATDHAGKSANEKADS
binding [1]: binds
binding [2]: binds
